Test results as given in PubChem BioAssay AID330 (DTP/NCI, 2004).
The list is a part of this screen's results and no random one: it gathers tests that were run many times, whatever their T/C, doses with no T/C, and many T/C values between a quarter and a half above the control. Other doses and runs of a compound stand elsewhere. T/C gives the treated animals as a percentage of the vehicle group. Some doses have a count of surviving animals in place of a T/C: the source holds a T/C of zero for them, seemingly a mark for toxic or unscored doses. Some doses without a T/C left all or most animals alive at the check, yet need not have been tolerated: survival well below the control is almost never listed, so the zero probably covers shortened survival too. Counts of survivors are from the toxicity check (mostly the fifth day) where no day follows; animals may have died later. Schedules are NCI's codes, taken here to give the interval after Q, in days (D) or hours (H), and the number of doses after X. Some doses were run more than once; their values stand side by side, smallest first. Some molecules as drawn cover several salts, stereoisomers or complexes of the source; a dose is that of the sample tested. Additions like (4×) give the number of equal values in this list. For survival time, the PubChem record calls one and a half times the control and up active, and a quarter to a half above the control has no call in these data; cut-offs in other NCI protocols can differ.

Test system: P388 leukemia ip, CD2F1 mice, survival T/C
Assay: NCI In Vivo Anticancer Drug Screen. Data for tumor model P388 Leukemia (intraperitoneal) in CD2F1 (CDF1) mice
Conditions: T/C endpoint: median survival time, higher T/C = longer survival
[1] = dose: 400.0 mg/kg/injection, schedule: Q04DX003 (ip), vehicle: saline with Tween-80
[2] = dose: 120.0 mg/kg/injection, schedule: Q01DX005 (ip), vehicle: saline with Tween-80
[3] = dose: 240.0 mg/kg/injection, schedule: Q01DX005 (ip), vehicle: saline with Tween-80
[4] = dose: 200.0 mg/kg/injection, schedule: Q01DX005 (ip), vehicle: saline
[5] = dose: 50.0 mg/kg/injection, schedule: Q01DX009 (ip), vehicle: saline with Tween-80
[6] = dose: 100.0 mg/kg/injection, schedule: Q01DX009 (ip), vehicle: saline with Tween-80
[7] = dose: 200.0 mg/kg/injection, schedule: Q01DX009 (ip), vehicle: saline with Tween-80
[8] = dose: 50.0 mg/kg/injection, schedule: Q01DX005 (ip), vehicle: saline with Tween-80
[9] = dose: 100.0 mg/kg/injection, schedule: Q01DX005 (ip), vehicle: saline with Tween-80
[10] = dose: 200.0 mg/kg/injection, schedule: Q01DX005 (ip), vehicle: saline with Tween-80
[11] = dose: 100.0 mg/kg/injection, schedule: Q01DX001 (ip), vehicle: saline
[12] = dose: 60.0 mg/kg/injection, schedule: Q01DX005 (ip), vehicle: saline with Tween-80
[13] = dose: 200.0 mg/kg/injection, schedule: Q01DX005 (ip), vehicle: Klucel (hydroxypropylcellulose) (HPC)

In the case of C[n+]1c(-c2cccc(OCCCCCCCCCCOc3cccc(-c4c5cc(N)ccc5c5ccc(N)cc5[n+]4C)c3)c2)c2cc(N)ccc2c2ccc(N)cc21, the T/C (dose: 0.19 mg/kg/injection, schedule: Q01DX005 (ip), vehicle: water) is reported as 141 % of control, the T/C (dose: 0.19 mg/kg/injection, schedule: Q01DX009 (ip), vehicle: water) is reported as 141 % of control and the T/C (dose: 0.38 mg/kg/injection, schedule: Q01DX009 (ip), vehicle: water) is reported as 133 % of control. For the same compound, the T/C (dose: 0.39 mg/kg/injection, schedule: Q01DX005 (ip), vehicle: water) was 144 % of control, the T/C (dose: 0.39 mg/kg/injection, schedule: Q01DX009 (ip), vehicle: water) was 139 % of control and the T/C (dose: 0.75 mg/kg/injection, schedule: Q01DX009 (ip), vehicle: water) was 142 % of control. For the same compound, the T/C (dose: 1.5 mg/kg/injection, schedule: Q01DX009 (ip), vehicle: water) was 142 % of control, the T/C (dose: 1.56 mg/kg/injection, schedule: Q01DX005 (ip), vehicle: water) was 141 % of control and the survivor count (dose: 3.12 mg/kg/injection, schedule: Q01DX005 (ip), vehicle: water) was 6 of 6. The survivor count (dose: 6.25 mg/kg/injection, schedule: Q01DX005 (ip), vehicle: water) was 5 of 6, the survivor count (dose: 12.5 mg/kg/injection, schedule: Q01DX005 (ip), vehicle: water) was 0 of 6 and the survivor count (dose: 12.5 mg/kg/injection, schedule: Q01DX009 (ip), vehicle: water) was 3 of 6.
With Cc1ccc(-c2nc3ncnc(N)c3[nH]2)cc1 the survivor count (dose: 50.0 mg/kg/injection, schedule: Q04DX003 (ip), vehicle: saline with Tween-80) was 3 of 6, the survivor count (dose: 100.0 mg/kg/injection, schedule: Q04DX003 (ip), vehicle: saline with Tween-80) was 3 of 6 and the survivor count (dose: 200.0 mg/kg/injection, schedule: Q04DX003 (ip), vehicle: saline with Tween-80) was 1 of 6. The survivor count [1] was 0 of 6.
In the case of COc1cc(C2c3cc4c(cc3OC(=O)C2C(C)=O)OCO4)cc(OC)c1OC (configuration not stated), the T/C [2] is reported as 134 % of control and the survivor count [3] is reported as 4 of 6 and 5 of 6.
For O=c1nc2n(c3nccnc13)CCS2, the survivor count (dose: 50.0 mg/kg/injection, schedule: Q01DX009 (ip), vehicle: saline) was 3 of 6, the survivor count (dose: 100.0 mg/kg/injection, schedule: Q01DX009 (ip), vehicle: saline) was 0 of 6 and the survivor count (dose: 200.0 mg/kg/injection, schedule: Q01DX009 (ip), vehicle: saline) was 0 of 6.
In the case of O=c1[nH]c2cc([N+](=O)[O-])ccc2o1, the survivor count (dose: 400.0 mg/kg/injection, schedule: Q01DX009 (ip), vehicle: Klucel (hydroxypropylcellulose) (HPC)) is reported as 1 of 6.
[NH-]C(CCC(N)=O)C(=O)O.[NH-]C(CCCN=C(N)N)C(=O)O.[Zn+2] (configuration not stated) was tested, and the survivor count [4] was 3 of 6 (2×).
CC(=O)[O][Hg][CH]1C2CC3C(C2OC(C)=O)C31 (configuration not stated) was tested, and the survivor count (dose: 25.0 mg/kg/injection, schedule: Q01DX009 (ip), vehicle: saline with Tween-80) was 6 of 6, the survivor count [5] was 5 of 6 and the survivor count [6] was 0 of 6. For the same compound, the survivor count [7] was 0 of 6.
With CC(=O)/C(=C\c1ccc(Cl)c(Cl)c1)C(=O)CCN(C)C the T/C (dose: 12.5 mg/kg/injection, schedule: Q01DX005 (ip), vehicle: saline with Tween-80) was 129 % of control, the T/C [8] was 128 and 130 % of control and the survivor count [9] was 0 of 5. The T/C (dose: 100.0 mg/kg/injection, schedule: Q01DX005 (ip), vehicle: saline, evaluated on day 20) was 133 % of control, the T/C (dose: 100.0 mg/kg/injection, schedule: Q01DX005 (ip), vehicle: saline, evaluated on day 30) was 129 % of control and the survivor count [10] was 0 of 5. For the same compound, the survivor count [4] was 0 of 6 and 1 of 6.
O=C([Se][Se]C(=O)c1ccccc1)c1ccccc1 was tested, and the survivor count [5] was 0 of 6, the survivor count [6] was 0 of 6 and the survivor count [7] was 0 of 6.
For COc1cccc2c1C(=O)c1c(O)c3c(c(O)c1C2=O)CC(O)(C(=O)COc1ccccc1)CC3OC1CC(NC(=O)C(F)(F)F)C(O)C(C)O1 (configuration not stated), the T/C (dose: 12.5 mg/kg/injection, schedule: Q01DX009 (ip), vehicle: other) was 134 % of control and the T/C (dose: 25.0 mg/kg/injection, schedule: Q01DX009 (ip), vehicle: other) was 132 % of control.
Cc1cc(N=C2C=CC(=[N+](C)C)C=C2)c(N)cc1N was tested, and the survivor count [6] was 0 of 6 and the survivor count [7] was 0 of 6.
In the case of Cc1cccc(N2CCN(c3ccc4nonc4c3[N+](=O)[O-])CC2)c1, the survivor count (dose: 50.0 mg/kg/injection, schedule: Q01DX009 (ip), vehicle: suspension in saline) is reported as 6 of 6.
CCc1cccc(NC(=O)SCc2ccccc2)c1 was tested, and the survivor count [7] was 5 of 6.
In the case of CC1=Nc2cccnc2N(C)N1C, the survivor count (dose: 120.0 mg/kg/injection, schedule: Q01DX005 (ip), vehicle: saline) is reported as 6 of 6 and the survivor count (dose: 240.0 mg/kg/injection, schedule: Q01DX005 (ip), vehicle: saline) is reported as 0 of 6.
With CC1(C)CC(C)(C)[P+]1(C)c1ccccc1 the survivor count [11] was 0 of 6.
In the case of CC1CN1P(=O)(N1CC2CCC(CC2)C1)N1CC1C (configuration not stated), the T/C (dose: 33.0 mg/kg/injection, schedule: Q01DX009 (ip), vehicle: saline with Tween-80) is reported as 129 % of control, the T/C [5] is reported as 141 % of control and the T/C (dose: 75.0 mg/kg/injection, schedule: Q01DX009 (ip), vehicle: saline with Tween-80) is reported as 133 % of control. For the same compound, the survivor count [1] was 4 of 6.
For Cc1ccc(S(=O)(=O)C(CCS(C)(=O)=O)C(=O)c2ccccc2)cc1 (configuration not stated), the survivor count [12] was 6 of 6 and the survivor count [2] was 6 of 6.
In the case of C=C1C(=O)OC2/C=C(\C)C(O)/C=C\C(C)(O)CC(OC(=O)/C(C)=C/C)C12 (configuration not stated), the survivor count (dose: 80.0 mg/kg/injection, schedule: Q01DX009 (ip), vehicle: saline) is reported as 5 of 6.
CN(C)CCCNC(=S)C(=S)NCCCN(C)C was tested, and the survivor count [13] was 6 of 6.
In the case of CCCCN(CCCC)CCCNc1nccc2ccccc12, the survivor count (dose: 50.0 mg/kg/injection, schedule: Q01DX005 (ip), vehicle: saline) is reported as 0 of 6, the survivor count (dose: 100.0 mg/kg/injection, schedule: Q01DX005 (ip), vehicle: saline) is reported as 0 of 6 and the survivor count [4] is reported as 0 of 6.
CCOP(=O)(OCC)C(=C(Cl)Cl)C(Cl)Cl was tested, and the survivor count [6] was 0 of 6 and 2 of 6 and the survivor count [7] was 0 of 6.
With COc1ccc(CC2=CC(=O)C(C)=CC2=O)cc1 the survivor count [8] was 3 of 6, the survivor count [9] was 0 of 6 and the survivor count [10] was 0 of 6.
For CCOC(=O)Nc1ccc(SCC2COC(Cn3ccnc3)(c3ccc(Cl)cc3Cl)O2)cc1 (configuration not stated), the T/C [12] was 143 % of control, the survivor count [11] was 0 of 6 and the survivor count [2] was 6 of 6. For the same compound, the survivor count (dose: 200.0 mg/kg/injection, schedule: Q01DX001 (ip), vehicle: saline) was 0 of 6, the survivor count [3] was 4 of 6 and the survivor count (dose: 400.0 mg/kg/injection, schedule: Q01DX001 (ip), vehicle: saline) was 0 of 6.
With C[C@]12CC[C@H](O)C[C@@H]1CC[C@@H]1[C@@H]2CC[C@]2(C)c3nc4ccccc4c(C(=O)O)c3C[C@@H]12 the survivor count [9] was 6 of 6.
In the case of OC1COc2ccccc2OCCOCCOc2ccccc2OC1, the survivor count [2] is reported as 1 of 6 and the survivor count [3] is reported as 0 of 6.
For CN(/N=C/c1ccc2c(c1)OCO2)c1ccc([N+](=O)[O-])cc1, the survivor count [13] was 6 of 6.
For CCCCCN(C)/N=N/c1nc[nH]c1C(N)=O, the T/C (dose: 264.0 mg/kg/injection, schedule: Q04DX003 (ip), vehicle: saline with Tween-80) was 136 % of control.
In the case of CC1=CC(=O)C(O)C2(C)C1CC1OC(=O)C(O)C3(O)C4(C)OCC13C2C(O)C4O (configuration not stated), the survivor count (dose: 3.0 mg/kg/injection, schedule: Q01DX009 (ip), vehicle: saline + alcohol) is reported as 4 of 6, the survivor count (dose: 6.0 mg/kg/injection, schedule: Q01DX009 (ip), vehicle: saline + alcohol) is reported as 0 of 6 and the survivor count (dose: 12.0 mg/kg/injection, schedule: Q01DX009 (ip), vehicle: saline + alcohol) is reported as 0 of 6.
With Cc1cc(=O)oc2c(C)c3oc4c(c3cc12)CN(C)CC4 the survivor count [13] was 6 of 6.
